From a melanoma drug combination screen (doi:10.1371/journal.pone.0140310); values rounded.

Compounds and concentrations:
XAV939 (10 µM): Oc1nc(-c2ccc(C(F)(F)F)cc2)nc2c1CSCC2
veliparib (7 µM): C[C@]1(c2nc3c(C(N)=O)cccc3[nH]2)CCCN1
SU6656 (2 µM): CN(C)S(=O)(=O)c1ccc2c(c1)/C(=C/c1cc3c([nH]1)CCCC3)C(=O)N2
lestaurtinib (0.02 µM): C[C@]12O[C@H](C[C@]1(O)CO)n1c3ccccc3c3c4c(c5c6ccccc6n2c5c31)CNC4=O
BMS-536924 (1 µM): Cc1cc(N2CCOCC2)cc2[nH]c(-c3c(NC[C@@H](O)c4cccc(Cl)c4)cc[nH]c3=O)nc12
gemcitabine (0.002 µM): Nc1ccn([C@@H]2O[C@H](CO)[C@@H](O)C2(F)F)c(=O)n1
stibogluconate (10 µM): O=C(O)[C@@H]1[O][Sb](=[O])([O][Sb]2(=[O])[O][C@H]([C@H](O)CO)[C@H](O)[C@H](C(=O)O)[O]2)[O][C@H]([C@H](O)CO)[C@@H]1O (stereo partly shown)
OSU-03012 (5 µM): NCC(=O)Nc1ccc(-n2nc(C(F)(F)F)cc2-c2ccc3c(ccc4ccccc43)c2)cc1

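Human melanoma cells were exposed to a pair of drugs for 72 h in 1,536-well plates and read by automated microscopy after fixing and staining. Values are the share of nuclei positive for cleaved PARP as a percentage of the same share in the DMSO control: 100 is the control level, higher means more apoptosis. Every drug was used at one fixed concentration, the higher of two screened. These are primary screening values without error estimates. The marker varies much from line to line, for technical or biological reasons.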
An unselected part of the screen is shown.
A dash means that no value is listed here.

| Drugs | UACC-62 | G-361 | SK-MEL-28 | IPC-298 | MEL-HO | A101D | 501mel | A2058 |
|---|---|---|---|---|---|---|---|---|
| stibogluconate + BMS-536924 | 112 | 310 | 123 | 90.2 | 72.1 | 209 | - | 102 |
| lestaurtinib + stibogluconate | 164 | 129 | 54.9 | 114 | 98.4 | 42.4 | - | 149 |
| stibogluconate + veliparib | 181 | 56.3 | 150 | 173 | 39.7 | 80.5 | - | 168 |
| OSU-03012 + gemcitabine | 140 | 329 | 565 | 63.2 | 222 | 217 | - | 57.5 |
| BMS-536924 + SU6656 | 110 | 116 | 95.7 | 164 | 93.1 | 67.8 | - | 148 |
| lestaurtinib + XAV939 | 162 | 110 | 91.2 | 48.4 | 48.2 | 161 | 210 | 152 |
| gemcitabine + lestaurtinib | 206 | 858 | 207 | 1060 | 115 | 244 | - | 357 |
| XAV939 + SU6656 | 107 | 271 | 149 | 127 | 54.1 | 157 | 97.3 | 77.0 |
| veliparib + lestaurtinib | 168 | 115 | 109 | 77.4 | 91.9 | 98.6 | - | 156 |
| veliparib + OSU-03012 | 206 | 162 | 534 | 62.0 | 273 | 110 | - | 104 |
| veliparib + gemcitabine | 147 | 169 | 49.4 | 188 | 96.5 | 237 | - | 240 |
| XAV939 + gemcitabine | 336 | 72.5 | 252 | 240 | 234 | 87.6 | 218 | 212 |
| gemcitabine + SU6656 | 188 | 387 | 66.9 | 43.6 | 325 | 273 | - | 185 |
| stibogluconate + OSU-03012 | 214 | 70.9 | 759 | 266 | 79.2 | 181 | - | 55.5 |
| SU6656 + lestaurtinib | 126 | 121 | 146 | 378 | 72.8 | 183 | - | 306 |
| BMS-536924 + gemcitabine | 81.9 | 106 | 106 | 82.4 | 186 | 81.0 | - | 106 |
| lestaurtinib + BMS-536924 | 79.2 | 141 | 207 | 88.8 | 82.5 | 97.1 | - | 209 |
| gemcitabine + stibogluconate | 161 | 579 | 54.9 | 226 | 170 | 129 | - | 264 |
| BMS-536924 + OSU-03012 | 165 | 60.3 | 304 | 237 | 86.2 | 63.5 | - | 74.9 |
| veliparib + XAV939 | 85.8 | 80.9 | 94.7 | 55.8 | 104 | 68.9 | 202 | 197 |
| stibogluconate + XAV939 | 418 | 125 | 74.8 | 126 | 192 | 73.7 | 149 | 129 |
| BMS-536924 + veliparib | 63.3 | 105 | 150 | 74.9 | 69.9 | 317 | - | 102 |
| SU6656 + OSU-03012 | 190 | 223 | 1620 | 106 | 122 | 160 | - | 120 |
| SU6656 + stibogluconate | 107 | 382 | 309 | 97.1 | 178 | 71.9 | - | 304 |
| XAV939 + BMS-536924 | 36.4 | 58.4 | 233 | 73.5 | 109 | 49.5 | - | 133 |
| SU6656 + veliparib | 179 | 165 | 218 | 90.8 | 38.4 | 146 | - | 194 |

Once more, the final 2:

Drugs	UACC-62	G-361	SK-MEL-28	IPC-298	MEL-HO	A101D	501mel	A2058
XAV939 + BMS-536924	36.4	58.4	233	73.5	109	49.5	-	133
SU6656 + veliparib	179	165	218	90.8	38.4	146	-	194